Results: patent publication US20100247551A1, “Use of Lipocalin 2 in the Regulation of Insulin Sensitivity” (priority 2006, published 2010)
At least one structure is not confirmed: it was looked up by name or label, or the drawing left a doubt.

Test system: Lcn2 expression in 3T3-L1 adipocytes
Assay: Lcn2 mRNA expression in mature 3T3-L1 adipocytes (Q-PCR)
Format: cell-based, mouse
Conditions: Dex 1 μM or TNF 4 ng/μL (FIG. 1)
Procedure: Mature 3T3-L1 adipocytes were treated with Dex (1 μM) or TNF (4 ng/μL) in the presence or absence of rosiglitazone (Rosi; 1 μM), and Lcn2 mRNA levels were measured by Q-PCR. Data presented as mean±SD, *p<0.05, ***p=0.005 relative to no Rosi.

C[C@@H]1C[C@H]2[C@@H]3CCC4=CC(=O)C=C[C@]4(C)[C@@]3(F)[C@@H](O)C[C@]2(C)[C@@]1(O)C(=O)CO [dexamethasone, reference compound]
Lcn2 expression: dramatically induced
